Values from PubChem BioAssay AID1259405 (NCATS, 2018).
Test: 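Silenced genes that increase secreted GFP made by CHO cells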 (primary screen). System: Chinese hamster CHO-K1 ovary cells with stable secreted eGFP expression. Reagent: single siRNA against mouse genes, 0.8 pmol siRNA per well (2 µl of 400 nM stock). Timing: 3 days. Measurement: 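Per-well intracellular GFP measured by laser scanning cytometry, plus viability from ATP luminescence, each relative to plate median of non-targeting control wells, in %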. Reading the numbers: GFP, % of control: higher = more GFP per well, higher productivity; viability (ATP), % of control: higher = more viable cells (more ATP). Rule for the call: 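Called active when intracellular GFP, relative to negative control, is at or above 120%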.
The deposit covers about 50,000 reagents; below is a part drawn at random. In the full data, about 4,000 (8%) were called active. 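Mouse siRNA library applied to hamster cells; one well for each siRNA.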

gene knocked down | PubChem SID | GFP, % of control | viability (ATP), % of control | activity call
Ms4a6d | SID363544127 | 36.4 | 64.5 | inactive
Ms4a6d | SID363544184 | 164 | 131 | active
Ms4a6d | SID363550455 | 59.1 | 70.6 | inactive
Ms4a6d | SID363550512 | 69.8 | 86.8 | inactive
Ms4a6d | SID363557004 | 57.1 | 88.7 | inactive
Ms4a6d | SID363557061 | 87.8 | 78.7 | inactive
Rad21 | SID363554867 | 116 | 61.3 | inactive
Rad21 | SID363568314 | 68.1 | 50.4 | inactive
Rad21 | SID363586373 | 157 | 49.1 | active
Rad21 | SID363589738 | 227 | 80.7 | active
Rad21 | SID363589739 | 223 | 88.5 | active
Rad21 | SID363589740 | 288 | 96.5 | active
Micu1 | SID363582672 | 74.8 | 91.4 | inactive
Micu1 | SID363584432 | 60.6 | 58.8 | inactive
Suclg1 | SID363584540 | 71.9 | 72.5 | inactive
Suclg1 | SID363589570 | 81 | 62.7 | inactive
Slc39a13 | SID363547638 | 48.8 | 77.4 | inactive
Slc39a13 | SID363558407 | 73.2 | 82.3 | inactive
Slc39a13 | SID363560165 | 68.3 | 89.3 | inactive
Gstm1 | SID363570468 | 148 | 84.8 | active
Gstm1 | SID363579268 | 196 | 142 | active
Gstm1 | SID363583140 | 123 | 96.8 | active
Zfyve26 | SID363542908 | 109 | 70.3 | inactive
Zfyve26 | SID363546425 | 104 | 53.8 | inactive
Zfyve26 | SID363548181 | 55.3 | 63.5 | inactive
Tlr2 | SID363568758 | 75 | 69.9 | inactive
Tlr2 | SID363576150 | 65.4 | 54.8 | inactive
Tlr2 | SID363578966 | 91.2 | 61 | inactive
Or51e2 | SID363545037 | 101 | 80 | inactive
Or51e2 | SID363551365 | 110 | 104 | inactive
Or51e2 | SID363557914 | 49.4 | 44.3 | inactive
Slc25a31 | SID363570288 | 123 | 124 | active
Slc25a31 | SID363576624 | 127 | 123 | active
Slc25a31 | SID363579792 | 62.5 | 75.1 | inactive
Hilpda | SID363543527 | 95.2 | 94.3 | inactive
Hilpda | SID363553020 | 38.7 | 39.8 | inactive
Hilpda | SID363558868 | 99.9 | 100 | inactive
Alox8 | SID363547635 | 89.8 | 61.9 | inactive
Alox8 | SID363558404 | 140 | 75.1 | active
Alox8 | SID363560162 | 88.6 | 63.1 | inactive
Pcdh8 | SID363573228 | 52.7 | 67 | inactive
Pcdh8 | SID363588467 | 61.7 | 60.6 | inactive
Sfrp5 | SID363541789 | 56.2 | 65.8 | inactive
Sfrp5 | SID363553381 | 58.3 | 47.5 | inactive
Sfrp5 | SID363566705 | 89.5 | 92.3 | inactive
Rbbp7 | SID363554932 | 69.2 | 105 | inactive
Rbbp7 | SID363568379 | 94.8 | 65.2 | inactive
Rbbp7 | SID363586438 | 74.7 | 83.3 | inactive
Meak7 | SID363542314 | 87.1 | 52.8 | inactive
Meak7 | SID363551805 | 77.2 | 65.1 | inactive
Meak7 | SID363559410 | 68.4 | 79.1 | inactive
Npsr1 | SID363571392 | 106 | 86.9 | inactive
Npsr1 | SID363571744 | 98.4 | 82.3 | inactive
Npsr1 | SID363572096 | 55.7 | 50.9 | inactive
Kat2b | SID363570660 | 134 | 94.8 | active
Kat2b | SID363579460 | 91.4 | 129 | inactive
Kat2b | SID363583332 | 82.4 | 89.1 | inactive
Marf1 | SID363547136 | 37.2 | 35.5 | inactive
Marf1 | SID363549948 | 67 | 79.3 | inactive
Marf1 | SID363588002 | 107 | 98.7 | inactive
Cyp1a2 | SID363572962 | 65.4 | 67.7 | inactive
Cyp1a2 | SID363577538 | 54.7 | 67.3 | inactive
Cyp1a2 | SID363581058 | 56.5 | 42.9 | inactive
Vangl2 | SID363540325 | 94.6 | 87.4 | inactive
Vangl2 | SID363542077 | 66.1 | 51.6 | inactive
Vangl2 | SID363566993 | 118 | 64.1 | inactive
Wdr26 | SID363556607 | 67.8 | 67.2 | inactive
Wdr26 | SID363563511 | 99.7 | 48.7 | inactive
Wdr26 | SID363587057 | 55.9 | 81 | inactive
Adrb1 | SID363571121 | 108 | 94.2 | inactive
Adrb1 | SID363571473 | 74.2 | 80.5 | inactive
Adrb1 | SID363571825 | 88.2 | 45 | inactive
Prelid1 | SID363543856 | 55.5 | 58.8 | inactive
Prelid1 | SID363551592 | 46.8 | 82.5 | inactive
Prelid1 | SID363559197 | 97.6 | 107 | inactive
Or52n2 | SID363554206 | 47.5 | 31.9 | inactive
Or52n2 | SID363567653 | 94.3 | 63.8 | inactive
Or52n2 | SID363585010 | 66.1 | 110 | inactive
Ttll9 | SID363541680 | 89.9 | 73.5 | inactive
Ttll9 | SID363553272 | 61.6 | 69.6 | inactive
Ttll9 | SID363566596 | 55.6 | 59.1 | inactive
Etv4 | SID363573406 | 55.1 | 61 | inactive
Etv4 | SID363588645 | 152 | 113 | active
Tppp | SID363541202 | 59.3 | 74.1 | inactive
Tppp | SID363555829 | 78.9 | 87.1 | inactive
Tppp | SID363566118 | 37.7 | 45.5 | inactive

Active calls (from the list above):
gene knocked down | PubChem SID | GFP, % of control | viability (ATP), % of control | activity call
Ms4a6d | SID363544184 | 164 | 131 | active
Rad21 | SID363586373 | 157 | 49.1 | active
Rad21 | SID363589738 | 227 | 80.7 | active
Rad21 | SID363589739 | 223 | 88.5 | active
Rad21 | SID363589740 | 288 | 96.5 | active
Gstm1 | SID363570468 | 148 | 84.8 | active
Gstm1 | SID363579268 | 196 | 142 | active
Gstm1 | SID363583140 | 123 | 96.8 | active
Slc25a31 | SID363570288 | 123 | 124 | active
Slc25a31 | SID363576624 | 127 | 123 | active
Alox8 | SID363558404 | 140 | 75.1 | active
Kat2b | SID363570660 | 134 | 94.8 | active
Etv4 | SID363588645 | 152 | 113 | active
